Results published in PMC7041778.
Results are given in words; binding and its absence hold for the method and conditions named. In cells and extracts the contact can be indirect. Some entries that bind do so weakly or less than the wild type.

Protein sequences, listed by entry. Tags and fused reporters are not part of them.
UniProt P38936: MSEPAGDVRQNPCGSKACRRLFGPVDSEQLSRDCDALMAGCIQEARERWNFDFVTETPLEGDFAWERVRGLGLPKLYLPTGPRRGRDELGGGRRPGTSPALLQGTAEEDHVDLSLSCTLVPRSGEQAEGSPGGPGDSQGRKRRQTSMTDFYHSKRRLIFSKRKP
UniProt Q9NTK5: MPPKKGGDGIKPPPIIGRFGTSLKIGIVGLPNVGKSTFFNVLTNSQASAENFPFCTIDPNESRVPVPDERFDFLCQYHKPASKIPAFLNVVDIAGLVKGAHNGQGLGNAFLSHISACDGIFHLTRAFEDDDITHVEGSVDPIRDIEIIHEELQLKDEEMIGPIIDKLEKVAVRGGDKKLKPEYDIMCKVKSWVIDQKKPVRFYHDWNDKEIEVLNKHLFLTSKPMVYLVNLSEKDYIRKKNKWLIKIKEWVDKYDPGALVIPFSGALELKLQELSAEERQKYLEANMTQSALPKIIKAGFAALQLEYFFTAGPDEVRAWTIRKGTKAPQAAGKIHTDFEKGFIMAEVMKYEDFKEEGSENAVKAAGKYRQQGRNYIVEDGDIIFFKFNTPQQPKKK

Columns and labels:
P21, endogenous = P21, endogenous (UniProt P38936); test: co-IP; endogenous OLA1 and P21; cells not given; western blot
HA-P21 (in HCC cells) = HA-P21 (in HCC cells) (UniProt P38936); test: co-IP; HCC cells transfected with Flag-CDK2 and HA-P21 with or without siRNA-OLA1 or GST-OLA1 for 48 h; extracts incubated with antibodies and protein A/G beads 12 h at 4°C; western blot
[1] = target: HA-P21 (in HEK293T cells) (UniProt P38936); test: co-IP; HEK293T cells transfected with Flag-OLA1 or HA-P21 (or both) for 48 h; extracts incubated with antibodies (or IgG control) and protein A/G beads 12 h at 4°C; western blot

| Substance | binding (P21, endogenous) | binding (HA-P21 (in HCC cells)) | binding [1] |
| --- | --- | --- | --- |
| Obg-like ATPase 1 (OLA1), endogenous (from UniProt Q9NTK5 1-396) | binds | binds |  |
| Flag-OLA1 (from UniProt Q9NTK5 1-396) |  |  | binds |
| GST-OLA1 (from UniProt Q9NTK5 1-396) |  | binds |  |
